From the supplement of paper PMC11150407
The whole screen tested about 3,000 compounds, of which about 45 (2%) showed an effect of 50% or more. The list shows a part of the results.

tested on: MOLM1 and UCSD/AML1 (averaged); test: cell viability relative to DMSO control (POC); higher = less growth inhibition; conditions: 1 µM; 72 h
Protocol: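 Primary viability screen in the 3q26 EVI1-high AML cell lines MOLM1 and UCSD/AML1, compounds at 1 uM for 72 h. ATP CellTiter-Glo read-out given as percent viable over DMSO control (POC), averaged over duplicates. This mapping covers the TimTec NDL-3000 natural derivative library, whose compounds are identified by TimTec catalogue codes (ST...).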

SMILES | cell viability [%]
COc1ccc(C=O)cc1C | 96
CC(=O)OC1CCC2(C)C(CCC3(C)C2C(=O)C=C2C4CC(C)(C(=O)Nc5ccccn5)CCC4(C)CCC23C)C1(C)C (stereo unspecified) | 72.2
COc1ccc(CC(C)NC(=O)c2ccc3c(c2)OCO3)cc1OC (stereo unspecified) | 104
Cc1oc(-c2ccccc2Cl)nc1CSc1nc2c(=O)[nH]cnc2n1C | 97.1
COc1ccc(NC(=O)CN2CCC3(O)CCCCC3C2c2cc(OC)c(OC)c(OC)c2)cc1 (stereo unspecified) | 98.5
Cc1oc(-c2ccc(OC(C)C)cc2)nc1CSc1nc2c(=O)[nH]cnc2n1C | 104
NC(Cc1ccccc1F)C(=O)O (stereo unspecified) | 109
O=C(c1ccncc1)c1cccc([N+](=O)[O-])c1 | 92.4
Cc1cc(NC(=O)c2ccc(C)c([N+](=O)[O-])c2)ccc1-c1cc2ccccc2oc1=O | 91.8
Nc1nc(N)c2[nH]c(SCC(=O)O)nc2n1 | 102
CCOC(=O)c1ccc2[nH]c(=O)c(Cc3ccccc3)c(O)c2c1 | 97.9
COc1ccc(C(C)=O)c(O)c1O | 105
COc1cc(-c2cc(=O)c3cc(C)cc(C)c3o2)ccc1O | 85.9
COc1ccc(C(=O)C2[C@@H]3C4COC(O4)C(=O)[C@@H]3[C@H]3C=Cc4ccccc4N23)cc1OC (stereo partly specified) | 90.7
Cc1ccc2occc(=O)c2c1 | 100
Cc1cc(=O)[nH]c2ccc(S(=O)(=O)N3CCN(c4ccccc4F)CC3)cc12 | 99.8
CC1(C(=O)O)CCC2(C)CCC3(C)C(=CCC4C5(C)CCC(O)C(C)(C)C5CCC43C)C2C1 (stereo unspecified) | 101
COC(=O)c1cc(O)cc(O)c1 | 104
COCCOC(=O)C1=C(N)OC2=C(C(=O)CC(C)(C)C2)C1c1cccnc1 (stereo unspecified) | 94.1
CCOC(=O)c1ccc(NC(=O)CSc2nc3c(=O)[nH]cnc3n2C)cc1 | 94.5
COc1cc(C=O)cc(OC)c1O | 93.7
Cc1ccc(-n2c(SCc3ccc(Cl)cc3)nc3c(=O)[nH]cnc32)cc1 | 112
CC(=O)Nc1ccc(NC(=O)Cn2c(=O)cc(C(=O)N3CCCCC3)c3ccccc32)cc1 | 105
COc1ccc(C2OC[C@@H]3C(c4ccc(OC)c(OC)c4)OC[C@H]23)cc1OC (stereo partly specified) | 101

4 of these compounds, set out differently:
SMILES	cell viability [%]
COc1cc(C=O)cc(OC)c1O	93.7
Cc1ccc(-n2c(SCc3ccc(Cl)cc3)nc3c(=O)[nH]cnc32)cc1	112
CC(=O)Nc1ccc(NC(=O)Cn2c(=O)cc(C(=O)N3CCCCC3)c3ccccc32)cc1	105
COc1ccc(C2OC[C@@H]3C(c4ccc(OC)c(OC)c4)OC[C@H]23)cc1OC (stereo partly specified)	101

More entries.

SMILES | cell viability [%]
COC(=O)C1=CN(C(C)c2ccccc2)C=C(C(=O)OC)C1c1cc(OC)c(OC)c(OC)c1 (stereo unspecified) | 100
Cc1ccc(-n2c(SCC(=O)Nc3c(F)c(F)cc(F)c3F)nc3c(=O)[nH]cnc32)cc1 | 102
COc1ccc(CCNS(C)(=O)=O)cc1OC | 105
C=CCOC(=O)C1(C)CCC2(C)CCC3(C)C(=CC(=O)C4C5(C)CCC(OC(C)=O)C(C)(C)C5CCC43C)C2C1 (stereo unspecified) | 99.4
COc1cc(C(=O)NNC(=O)C2CC=CCC2C(=O)O)cc(OC)c1OC (stereo unspecified) | 99.9
CCOc1ccc(C(c2c[nH]c3ccccc23)c2c[nH]c3ccccc23)cc1 | 99.7
Cc1ccc(C(=O)NC(C)(C)C(=O)N/N=C/c2c(O)c(O)c(C(C)C)c3cc(C)c(-c4c(C)cc5c(C(C)C)c(O)c(O)c(/C=N/NC(=O)C(C)(C)NC(=O)c6ccc(C)cc6)c5c4O)c(O)c23)cc1 | 101
COC(=O)c1[nH]c2cccc(OC)c2c1N | 99.5
COc1cc(CNC(=O)COc2ccc(C3CCCCC3)cc2)cc(OC)c1OC | 95
CCOc1ccc2oc(=O)cc(Cn3c(=O)c4c(C(=O)OC)cc(C5CC5)nc4n(C)c3=O)c2c1 | 91.3
O=C(Cn1c(=O)cc(C(=O)N2CCCCC2)c2ccccc21)Nc1ccccc1 | 100
C=CCN(C(=O)CSc1nc2c(=O)[nH]cnc2n1-c1ccc(C)cc1)c1ccccc1 | 96.5
CN(C)c1ccc2cc3ccc(=[N+](C)C)cc-3oc2c1 | 3.15
CCOc1ccc(C(=O)Nc2ccccc2OC)cc1OCC | 89.7
O=C(C[C@H](NC(=O)OCC1c2ccccc2-c2ccccc21)C(=O)O)NC(c1ccccc1)(c1ccccc1)c1ccccc1 | 90.1
N#C/C(=C\c1ccc(-c2ccc(Cl)c(Cl)c2)o1)C(=O)N1CCc2ccccc2C1 | 97.6
CN(C(=O)CN(CCO)CC(=O)N(C)C(C)(C)Cc1ccccc1)C(C)(C)Cc1ccccc1 | 95.8
Cc1cccc(Cn2c(SCc3ccc(Cl)cc3)nc3c2c(=O)[nH]c(=O)n3C)c1 | 95.2
COc1cc2c(cc1OC)C1(C)N(CC2)C(=O)OC1(C)C (stereo unspecified) | 108
O=C(/C=C/c1ccc(Cl)cc1Cl)c1ccc(Br)cc1 | 108
COc1cc(C2/C(=C(\O)c3ccccc3)C(=O)C(=O)N2c2cccc(C)c2)ccc1O (stereo unspecified) | 89.6
COc1cc(/C=C(\C(=O)c2ccc(C)cc2)c2nc3ccccc3o2)ccc1O | 95.9
COc1cc(OC)cc(C(=O)NCc2ccc3[nH]c4c(c3c2)CCCC4)c1 | 97
O=C(/C=C/c1ccc2c(c1)OCO2)c1ccc2c(c1)OCCO2 | 104

SMILES | cell viability [%]
CC(=O)Nc1nc(-c2ccccc2)nc2c1c(=O)oc1ccccc12 | 93.3
COC(=O)CNC(=O)c1ccc(Cl)cc1 | 96.7
NC(Cc1ccc(F)cc1)C(=O)O (stereo unspecified) | 96.1
CC(C)(C)OC(=O)N[C@@H](CC(=O)OCc1ccccc1)C(=O)O | 95.4
CCN(CC)CCC(=O)c1ccc(OC)c(OC)c1 | 98.6
COc1cccc(C2Nc3ccccc3NC3=C2C(=O)CC(c2ccc(Cl)cc2)C3)c1OC (stereo unspecified) | 111
C=C(C)C1CCC2(C)CCC3(C)C(CCC4C5(C)CCC(OC(C)=O)C(C)(C)C5CCC43C)C12 (stereo unspecified) | 102
Cc1c(-c2ccc(Cl)cc2)c(=O)oc2cc(O)ccc12 | 93.9
CCOC(=O)Cn1c(Sc2nc3c(c(=O)n(C)c(=O)n3C)n2C)nc2ccccc21 | 101
CCCOC(=O)/C(=C\c1ccncc1)NC(=O)c1ccccc1 | 105
O=C(NCc1ccccc1)c1c(O)c2ccccc2[nH]c1=O | 120
CC1CCCCN1C(=O)CSc1nc2ccccc2c(=O)[nH]1 (stereo unspecified) | 96.7
CC(=O)n1cc(N2C(=O)C3C4C=CC(C4)C3C2=O)c(=O)[nH]c1=O (stereo unspecified) | 101
Cc1cc(OCCN=Cc2c(O)c(O)c(C(C)C)c3cc(C)c(-c4c(C)cc5c(C(C)C)c(O)c(O)c(C=NCCOc6cc(C)c(Cl)c(C)c6Cl)c5c4O)c(O)c23)c(Cl)c(C)c1Cl | 87.2
CCOc1ccc2oc(=O)cc(CN3CCN(Cc4ccc(F)cc4Cl)CC3)c2c1 | 93.3
O=C(Cn1c(=O)cc(C(=O)NCc2ccccc2)c2ccccc21)Nc1ccc(Cl)cc1 | 89.8
COc1cc(OC)cc(C(=O)c2ccc(C(=O)Nc3cc(C(C)C)c(O)cc3C)cc2)c1 | 82.8
CCOc1ccc(-c2oc3ccccc3c(=O)c2OS(=O)(=O)c2ccc(Br)cc2)cc1 | 89.2
COc1ccc2c(c1)c(CC(=O)NC(C)c1ccccc1)c(C)n2C(=O)c1ccc(Cl)cc1 (stereo unspecified) | 82.8
Cc1cc2occ(Br)c(=O)c2cc1Cl | 86.9
O=C(/C=C/c1cccc(O)c1)c1ccccc1O | 78.9
O=C(/C=C/c1ccc(Cl)c(Cl)c1)c1ccc2ccccc2c1O | 103
Cc1cc2c(c(O)c1-c1c(C)cc3c(c1O)/C(=C/NNC(=O)c1ccncc1)C(=O)C(O)=C3C(C)C)/C(=C/NNC(=O)c1ccncc1)C(=O)C(O)=C2C(C)C | 86.7
COc1cc2c3cc1Oc1cc(ccc1O)C[C@H]1c4cc(c(OC)cc4CCN1C)Oc1cc(ccc1O)C[C@@H]3N(C)CC2 | 93.4

SMILES | cell viability [%]
CCOc1ccc2oc(=O)cc(CN3CCN(Cc4nc(-c5cccc(Cl)c5)oc4C)CC3)c2c1 | 103
Cc1cc(=O)oc2cc(OC(=O)c3cccc(Cl)c3)ccc12 | 99.1
COc1cc(C2=NOC(=O)/C2=C\c2ccc(Br)cc2)cc(OC)c1OC | 110
Cc1[nH]c2ccccc2c1CCNC(=O)c1ccccc1[N+](=O)[O-] | 103
CCN(CC)c1ccc(C2C3CCCCC3(O)CCN2C(=O)C2c3ccccc3Oc3ccccc32)cc1 (stereo unspecified) | 93.5
O=c1cc(-c2ccccc2)oc2ccc(Br)cc12 | 83.8
COc1ccc(C2NCCc3c2[nH]c2ccccc32)cc1COc1ccccc1C1CCCCC1 (stereo unspecified) | 79.3
CC1(C)OC2C[C@H]3[C@@H]4C[C@H](F)C5=CC(=O)C=CC5(C)[C@@]4(F)C(O)CC3(C)C2(C(=O)CO)O1 (stereo partly specified) | 82
COc1ccc2[nH]c(C)c(CCNS(=O)(=O)c3c(C)[nH]c(=O)[nH]c3=O)c2c1 | 96.8
Cc1ccc(C(=O)OCC2OC(n3cc(C=O)c(=O)[nH]c3=O)CC2OC(=O)c2ccc(C)cc2)cc1 (stereo unspecified) | 108
CC(=CCC/C(C)=C/COc1ccc2ccc(=O)oc2c1)CCC(=O)C(C)(C)O | 101
CC(=O)N(c1cc(Cl)c2nc(C)cc(C)c2c1Oc1cccc(C(F)(F)F)c1)C1OC(CO)C(O)C(O)C1O (stereo unspecified) | 94.2
COC(=O)C1Cc2c([nH]c3ccccc23)C(c2ccc(OC)cc2OC)N1 (stereo unspecified) | 99.6
Cc1ccc(-n2c(SCC(=O)Nc3cccc(Cl)c3)nc3c(=O)[nH]cnc32)cc1 | 106
O=C(c1cccnc1)N1N=C(c2c(-c3ccccc3)c3cc(Br)ccc3[nH]c2=O)CC1c1ccccc1 (stereo unspecified) | 82.5
COc1ccc(C(=O)Nc2ccccc2C(=O)Nc2cccc(C)n2)cc1OC | 96.7
COc1ccc(Cn2c(-c3ccc(OC)cc3)nc3ccccc32)cc1 | 102
Cc1cc(S(=O)(=O)Nc2ccc(-n3ccnc3)c(Cl)c2)c2[nH]c(=O)cc(C)c2c1 | 95.4
Cc1cc(C)c2[nH]c(=O)cc(C)c2c1 | 98.2
CCc1cccc(C)c1NC(=O)CN1CCN(Cc2cc(=O)oc3cc(C)ccc23)CC1 | 95.4
Cc1[nH]c2ccc(Br)cc2c1CCNC(=O)c1cc2ccccc2oc1=O | 98.9
Cc1cc(=O)[nH]c2ccc(S(=O)(=O)N3CCN(C(=O)c4ccco4)CC3)cc12 | 94
Cc1ccc(NC(=O)Cn2c(=O)cc(C(=O)NCc3ccccc3)c3ccccc32)cc1F | 97.1
CCOC(=O)[C@H]1CCC(=O)N1 | 17.6

Part of the list above in order of molecular weight, high to low.
SMILES | cell viability [%]
Cc1ccc(NC(=O)Cn2c(=O)cc(C(=O)NCc3ccccc3)c3ccccc32)cc1F | 97.1
Cc1cc(S(=O)(=O)Nc2ccc(-n3ccnc3)c(Cl)c2)c2[nH]c(=O)cc(C)c2c1 | 95.4
COc1cc(C2=NOC(=O)/C2=C\c2ccc(Br)cc2)cc(OC)c1OC | 110
